Laboratory results as given in article doi:10.1101/2024.01.31.578135.
Results are given in words; binding and its absence hold for the method and conditions named. Binding seen in cells or lysates may run through a third protein. Here binding means that the protein was enriched with, or labelled near, the bait; the list need not be complete.

Biological target: C-terminally myc-tagged TbPam27 (Trypanosoma brucei) (UniProt Q388L6)
Test: affinity purification with mass spectrometry

| Substance | binding |
| --- | --- |
| TbTim20 (Tb927.11.1620) (from UniProt Q386Z2) | binds |
| TbTim15 (Tb927.2.4445) (from UniProt Q586P9) | binds |
| Tb927.11.1010 (from UniProt Q387E9) | binds |
| Tb927.8.7010 (from UniProt Q57YQ8) | binds |
| Tb927.11.16750 (from UniProt Q381B1) | binds |
| Tb927.8.3450 (from UniProt Q57YW8) | binds |
